# Library screen at single concentrations

Data taken from ChEMBL document CHEMBL3988442, “University of Dundee, Small-Polar-MMV Screening Library” (2021).

The filed quantity is “Percent Effect” (%). How 0% and 100% were set is not recorded. Most values in the screen are low, and negative values occur. Compounds were drawn at random from those tested, without regard to their results.

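Whole-parasite assay of Trypanosoma brucei over 72 hours; the read-out is not stated. Concentration: 30 µM. Higher reads as stronger inhibition (inferred: compounds with an IC50 in retests scored well above the rest). Values scatter widely below zero; nearly all retest evidence comes from the higher of the two concentrations used. About 64,000 compounds were tested under these conditions; 1.5% (about 940) showed 50% or more at least once.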

compound,Percent Effect
CCC(CNC(=O)c1ccc(Br)o1)N1CCc2ccccc2C1 (centres unmarked),17.25
O=C(O)C(F)(F)F.[H][C@]12CC[C@@]3(N=C(CC)N(CC4CC4)C3=O)[C@@]1([H])CN(CC1CC1)C2,-23.62
COCCN(CCOC)C(=O)c1cc(F)cc2[nH]cnc12,-15.13
Cc1nn(C)c2c(=O)n(Cc3ccc(F)cc3)nnc12,-25.48
CN(C)C(=O)CN1CCC2(CCN(C(=O)N(C)C)CC2)C1=O,-18.73
COc1ncccc1C1CC(=O)NCc2nc3ccccn3c21 (centres unmarked),-23.14
Cc1cc(NC(=O)c2ccccc2Br)n(C)n1,-18.52
Cc1ccsc1CCNC(=O)CCC1CCCCN1C (centres unmarked),-97.38
O=C(O)C(F)(F)F.[H][C@@]12CN(Cc3nccn3C)C[C@@]1([H])N(CC1CCCC1)C(=O)CO2,-37
Cc1nc(CN2CCOC(CNc3cccnn3)C2)cs1 (centres unmarked),-27.36
CN(Cc1ccc2nsnc2c1)C(=O)CCc1cc2n(n1)CCCNC2,4.254
COCC1CN(Cc2c(C)noc2C)Cc2ccnn2C1.O=C(O)C(F)(F)F.O=C(O)C(F)(F)F (centres unmarked),-12.56
[H][C@@]12C[C@@H](c3nnc(C4CC4)o3)O[C@]1([H])CN(C(=O)c1ccc(C)s1)C2,-90.94
[H][C@@]12CN(C(=O)C3CCOC3)C[C@@]1([H])N(CC(C)C)C(=O)CO2 (some centres unmarked),-15.96
Cc1ccccc1C(CC(=O)NCc1n[nH]c(N)n1)c1ccccc1 (centres unmarked),-27.31
CCn1nc(C)c2ncnc(NCCCn3ccnc3)c21,-35.88
Cc1cn2c(n1)CCC(NC(=O)c1c[nH]c(C)n1)C2 (centres unmarked),-10.36
COCCN1CCC2(COCCN(Cc3ccc4c(c3)OCO4)C2)C1.O=C(O)C(F)(F)F.O=C(O)C(F)(F)F (centres unmarked),-32.58
CC(NCC1(N(C)C)CCOCC1)c1ccc(SC(F)F)cc1 (centres unmarked),-8.028
CC(Cn1cccn1)NC(=O)Nc1nnc(C2CC2)s1 (centres unmarked),22.74
CCc1nc(N)nc(N(C)Cc2nncn2CCOC)c1C,-68.94
COc1ccc(C(=O)N2CCCCC2c2nc(C)cs2)nn1 (centres unmarked),1.771
Cc1ccc(OCCNC(=O)C2CCOCC2)c(C)c1,-21.83
Cc1cc(N(C)CC2COc3ccccc3O2)nc(N)n1 (centres unmarked),-9.48
O=C(O)C(F)(F)F.O=C(O)C(F)(F)F.O=C(O)C(F)(F)F.[H][C@]12CCN(Cc3ccccn3)[C@@]1([H])CC[C@H](COCCN1CCCC1)O2,-754.9
Cc1ncccc1CNCC1CCN(CCO)CC1,-9.621
CC(=O)Nc1nc(C2CCN(C(=O)C3CCC3)CC2)cs1,3.039
O=C(O)C(F)(F)F.O=C(O)C(F)(F)F.c1cn2c(n1)CN(CC1CC1)CC(CN1CCOCC1)C2 (centres unmarked),6.047
CN1CC2(CCN(C(=O)c3coc4c3C(=O)CCC4)C2)OC1=O (centres unmarked),-21.91
COCCN(Cc1cnn(C)c1)C(=O)C1CCCN(C2CCOCC2)C1 (centres unmarked),-11.24
CCOc1ccccc1C(=O)Nn1c(C)cc(C)cc1=O,12.06
COCCN(CCN(C)C)C(=O)NC1CCc2ccccc2C1 (centres unmarked),10.99
[H][C@@]12CCN(Cc3cnn(C)c3)C[C@@]1([H])[C@H](C(=O)N1CCCCO1)CCO2,33.59
CCn1cc(Br)c(C(=O)NCc2cnn(C)c2)n1,3.396
COc1ccccc1OCCCN1C(=O)CCNC1=O,-66.68
CNc1nc(C)c(C(=O)N2CCCCC2CCc2ccccc2)s1 (centres unmarked),-11.6
CCc1oc(C(=O)NC(C)Cc2cnccn2)cc1CN1CCCC1 (centres unmarked),-25.47
CC(C)COC(C)C(=O)NCc1ccc(-n2cncn2)nc1 (centres unmarked),-8.376
COC(=O)N1CCC(Nc2cccc(F)c2C(C)=O)CC1,-11.65
COC(C(=O)NC1CCN(S(C)(=O)=O)CC1)c1ccccc1 (centres unmarked),-81.92
CC(C)n1cnnc1CN(C)Cc1ccc(CO)o1,-12.3
C1CN(Cc2noc(C3CC3)n2)CCN(Cc2nnc(C3CC3)o2)C1,-2.944
COCC(=O)N1CCC(C(=O)N(C)C(C)c2ccon2)CC1 (centres unmarked),16.36
CC1CCCN(CCCNC(=O)c2cn(C)nc2-c2cccnc2)C1 (centres unmarked),0.595
Cc1nn(C(C)C)c(C)c1S(=O)(=O)Nc1cccc(F)c1,-2.912
CC(C)(C)c1coc([C@@H]2COCCN2CC2CC2)n1,0.5075
Cc1nc(Nc2ncccn2)cc(C2CCCN2C(C)C)n1 (centres unmarked),11.78
[H][C@@]12C[C@H](c3nnc(C4CC4)o3)O[C@@]1([H])CCN(CC1CCOCC1)C2,-12.77
Cc1nn(C)c2c(=O)n(CC(=O)NCCC3=CCCCC3)ccc12,1.217
O=C(CCc1nc2cccnc2[nH]1)Nc1cccnc1,35.7
Fc1cccnc1CN1CCCCC1c1ccn2ccnc2n1 (centres unmarked),9.918
Cc1cc(CN2CCC(CNC(=O)c3ccc(O)c(Cl)c3)C2)[nH]n1 (centres unmarked),-29.57

The first 4 entries again:

| compound | Percent Effect |
|---|---|
| `CCC(CNC(=O)c1ccc(Br)o1)N1CCc2ccccc2C1` (centres unmarked) | 17.25 |
| `O=C(O)C(F)(F)F.[H][C@]12CC[C@@]3(N=C(CC)N(CC4CC4)C3=O)[C@@]1([H])CN(CC1CC1)C2` | -23.62 |
| `COCCN(CCOC)C(=O)c1cc(F)cc2[nH]cnc12` | -15.13 |
| `Cc1nn(C)c2c(=O)n(Cc3ccc(F)cc3)nnc12` | -25.48 |